According to PubChem BioAssay AID540256 (National Center for Advancing Translational Sciences (NCATS), 2011):
The whole screen tested about 300,000 compounds, of which about 3,700 (1.2%) were called active. Inconclusive means that the source gave no clear call. Such entries were picked first, then a sample of the others. Calls come from the whole dose curve; tested in HEK293 cells. Potencies beside an inconclusive call are fits to weak or partial responses and may not hold up.

experiment: qHTS for Inhibitors of binding or entry into cells for Lassa Virus; conditions: Lassa virus pseudotype entry inhibition, cell reporter; activity change, negative = inhibition: at 37.9 µM (top of the series) unless noted; note: nearly all actives have a fitted effect of over 50% in size
% is set by controls: 0 for no effect and ±100 for the full control effect; potency is the fitted concentration of half-maximal effect.

| SMILES | Potency | activity change, negative = inhibition |
| --- | --- | --- |
| COCCn1c(C)cc(O)c(C(c2ccccc2OC)N2CCCCC2)c1=O (stereo not drawn) | inconclusive: 3.55 µM [activator, partial curve, poor fit] |  |
| CC(Sc1nnc(Nc2ccccc2)s1)C(=O)Nc1nc(-c2ccccc2)cs1 (stereo not drawn) | inconclusive: 2.82 µM [inhibitor, full curve, poor fit] |  |
| O=C(N/N=C/c1cc2c(c([N+](=O)[O-])c1)OCO2)c1ccncc1 | inconclusive: 35.5 µM [inhibitor, single point] |  |
| Cc1ccc2[nH]c3c(N4CCc5ccccc5C4)ncnc3c2c1 | inconclusive: 14.1 µM [inhibitor, single point] |  |
| CCCn1c2ccccc2c2nnc(SC(CC)C(=O)Nc3sc4c(c3C#N)CCCC4)nc21 (stereo not drawn) |  | inactive: -0.439% |
| O=C(Nc1ccc(Cl)cc1)c1ccc2c(c1)OCO2 | inconclusive: 0.0891 µM [activator, full curve, poor fit] |  |
| Cc1cccc(NC(=O)CN2CCc3cc4c(cc3C2C)OCCCO4)c1 (stereo not drawn) | inconclusive: 1 µM [inhibitor, full curve, poor fit] |  |
| CC(C)c1ccc(-c2nc(N3CCCCC3)[nH]c(=O)c2C#N)cc1 | inconclusive: 0.146 µM [activator, partial curve, poor fit] |  |
| Cc1ncc(CN2CCC(C(=O)Nc3ccc(Oc4cccnc4)cc3)CC2)cn1 |  | inactive: -9.59% |
| COc1ccc2c(c1)c(C(=O)N/N=C/c1ccc(Cl)cc1)c(C)n2C | inconclusive: 5.01 µM [inhibitor, partial curve] |  |
| CCCCN(CC)CCNC(=O)Cn1c(=O)c2cccn2c2cccnc21 |  | inactive: -2.33% [at 46.1 µM] |
| Cc1nn(C)cc1-c1cc(C(=O)O)c2ccccc2n1 | inconclusive: 14.1 µM [activator, single point] |  |
| COc1ccc(OC)c(/C=C/C(=O)OCC(=O)N2C(C)CCCC2C)c1 (stereo not drawn) | inconclusive: 35.5 µM [inhibitor, single point] |  |
| COc1cccc(CN2CCN(Cc3nc(C(C)C)cs3)CC2CCO)c1 (stereo not drawn) | inconclusive: 35.5 µM [inhibitor, single point] |  |
| Cc1ccccc1Cn1c(Oc2ccccc2F)nc2c1c(=O)n(C)c(=O)n2C |  | inactive: -6.38% [at 46.1 µM] |
| CSc1nnnn1-c1c(C)cc(C)cc1C | inconclusive: 14.1 µM [inhibitor, partial curve, poor fit] |  |
| Cc1ccc2c(c1)c1nnc(SCC(=O)Nc3cccc(Cl)c3C)nc1n2CC(=O)O | inconclusive: 2.82 µM [inhibitor, partial curve, poor fit] |  |
| COc1ccc(C(=O)Nc2ccc(NC(=O)c3cccs3)cc2)cc1Cl |  | inactive: 6.06% |

A draw from above in order of number of heavy atoms, falling.

| SMILES | Potency | activity change, negative = inhibition |
| --- | --- | --- |
| Cc1ncc(CN2CCC(C(=O)Nc3ccc(Oc4cccnc4)cc3)CC2)cn1 |  | inactive: -9.59% |
| COc1cccc(CN2CCN(Cc3nc(C(C)C)cs3)CC2CCO)c1 (stereo not drawn) | inconclusive: 35.5 µM [inhibitor, single point] |  |
| CC(C)c1ccc(-c2nc(N3CCCCC3)[nH]c(=O)c2C#N)cc1 | inconclusive: 0.146 µM [activator, partial curve, poor fit] |  |
